Results deposited as PubChem BioAssay AID1671195 (Yale University, 2021).

Assay: 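Knockdowns that increase or decrease uptake of fluorescent LDL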 (primary screen)
Cell system: human Huh7 hepatoma cells
Knock-down reagent: siRNA pool against human genes, 18 nM
Time to read-out: about 2 to 2.5 days of knockdown, then 8 h LDL uptake
Conditions: DiI-labelled LDL at 30 µg/ml for 8 h, in lipoprotein-deficient serum medium
Measured: 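Per-cell DiI-LDL intensity by automated imaging; well means scaled to the plate median and given as a robust z-score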
Scale: robust z-score: higher = more LDL uptake after knockdown
Rule for the call: 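Active when two or more replicates show a robust z-score above 2 or below -2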
The deposit covers about 22,000 reagents; this is a part drawn at random. In the full data, about 1,510 (6.9%) were called active. 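Active includes knockdowns raising or lowering LDL uptake; positive z-scores mean more uptake, negative mean less.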 A number with no mark means an inactive call.

The first 2 entries, ahead of the listing:
| gene | robust z-score, replicate 1 | robust z-score, replicate 2 | robust z-score, replicate 3 |
| --- | --- | --- | --- |
| SLC11A2 | -0.989 | -0.202 | -0.311 |
| ZNF324B | -1.41 | -1.3 | -0.774 |

The list itself, from the start:
| gene | robust z-score, replicate 1 | robust z-score, replicate 2 | robust z-score, replicate 3 |
| --- | --- | --- | --- |
| SLC11A2 | -0.989 | -0.202 | -0.311 |
| ZNF324B | -1.41 | -1.3 | -0.774 |
| CXADR | 3.47 (active) | 3 | 3.33 |
| TRIM47 | 3.01 (active) | 3.26 | 4.86 |
| DERL3 | 1.19 | 1.04 | 2.13 |
| SKOR2 | -0.903 | -0.67 | -0.158 |
| KLF16 | -1.57 | -1.88 | -1.77 |
| EXOSC2 | -1.51 | -1.32 | -1.69 |
| TNFAIP3 | -1.13 | -1.41 | -1.5 |
| CEP120 | -0.802 | -1.88 | 0.125 |
| TPM3P9 | -0.734 | 0.194 | -0.628 |
| C1orf185 | 3.33 (active) | 2.69 | 3.32 |
| STT3B | -0.52 | -0.108 | -0.0618 |
| ARTN | 2.41 | -1.13 | -0.0975 |
| MT1G | 0.593 | -1.15 | 0.202 |
| CD72 | -0.253 | 0.307 | 1.28 |
| RSRC1 | 0.232 | -1.92 | -1.27 |
| LINC00467 | -0.107 | 1.12 | -0.226 |
| RASL11B | -0.111 | 0.809 | 0.487 |
| OSBPL10 | -0.209 | 0.585 | -0.0124 |
| HYCC2 | -0.00823 | 0.0959 | 0.0356 |
| UPK3B | -0.115 | 0.221 | -0.282 |
| ABCA5 | 0.305 | 0.747 | 0.576 |
| ZNF573 | 1.05 | -0.166 | 0.0662 |
| SLC66A1LP | -0.386 | 0.127 | -0.327 |
| TSC22D2 | 1.23 | 1.29 | 1.22 |
| PDIA5 | 0.684 | -0.103 | 1.16 |
| TRPC1 | 1.07 | 0.746 | -0.291 |
